From patent US20140227179A1

Chains of the proteins cited; added tags and fusions are not shown. Residues count along the entry.
UniProt P98088, residues 28-5654: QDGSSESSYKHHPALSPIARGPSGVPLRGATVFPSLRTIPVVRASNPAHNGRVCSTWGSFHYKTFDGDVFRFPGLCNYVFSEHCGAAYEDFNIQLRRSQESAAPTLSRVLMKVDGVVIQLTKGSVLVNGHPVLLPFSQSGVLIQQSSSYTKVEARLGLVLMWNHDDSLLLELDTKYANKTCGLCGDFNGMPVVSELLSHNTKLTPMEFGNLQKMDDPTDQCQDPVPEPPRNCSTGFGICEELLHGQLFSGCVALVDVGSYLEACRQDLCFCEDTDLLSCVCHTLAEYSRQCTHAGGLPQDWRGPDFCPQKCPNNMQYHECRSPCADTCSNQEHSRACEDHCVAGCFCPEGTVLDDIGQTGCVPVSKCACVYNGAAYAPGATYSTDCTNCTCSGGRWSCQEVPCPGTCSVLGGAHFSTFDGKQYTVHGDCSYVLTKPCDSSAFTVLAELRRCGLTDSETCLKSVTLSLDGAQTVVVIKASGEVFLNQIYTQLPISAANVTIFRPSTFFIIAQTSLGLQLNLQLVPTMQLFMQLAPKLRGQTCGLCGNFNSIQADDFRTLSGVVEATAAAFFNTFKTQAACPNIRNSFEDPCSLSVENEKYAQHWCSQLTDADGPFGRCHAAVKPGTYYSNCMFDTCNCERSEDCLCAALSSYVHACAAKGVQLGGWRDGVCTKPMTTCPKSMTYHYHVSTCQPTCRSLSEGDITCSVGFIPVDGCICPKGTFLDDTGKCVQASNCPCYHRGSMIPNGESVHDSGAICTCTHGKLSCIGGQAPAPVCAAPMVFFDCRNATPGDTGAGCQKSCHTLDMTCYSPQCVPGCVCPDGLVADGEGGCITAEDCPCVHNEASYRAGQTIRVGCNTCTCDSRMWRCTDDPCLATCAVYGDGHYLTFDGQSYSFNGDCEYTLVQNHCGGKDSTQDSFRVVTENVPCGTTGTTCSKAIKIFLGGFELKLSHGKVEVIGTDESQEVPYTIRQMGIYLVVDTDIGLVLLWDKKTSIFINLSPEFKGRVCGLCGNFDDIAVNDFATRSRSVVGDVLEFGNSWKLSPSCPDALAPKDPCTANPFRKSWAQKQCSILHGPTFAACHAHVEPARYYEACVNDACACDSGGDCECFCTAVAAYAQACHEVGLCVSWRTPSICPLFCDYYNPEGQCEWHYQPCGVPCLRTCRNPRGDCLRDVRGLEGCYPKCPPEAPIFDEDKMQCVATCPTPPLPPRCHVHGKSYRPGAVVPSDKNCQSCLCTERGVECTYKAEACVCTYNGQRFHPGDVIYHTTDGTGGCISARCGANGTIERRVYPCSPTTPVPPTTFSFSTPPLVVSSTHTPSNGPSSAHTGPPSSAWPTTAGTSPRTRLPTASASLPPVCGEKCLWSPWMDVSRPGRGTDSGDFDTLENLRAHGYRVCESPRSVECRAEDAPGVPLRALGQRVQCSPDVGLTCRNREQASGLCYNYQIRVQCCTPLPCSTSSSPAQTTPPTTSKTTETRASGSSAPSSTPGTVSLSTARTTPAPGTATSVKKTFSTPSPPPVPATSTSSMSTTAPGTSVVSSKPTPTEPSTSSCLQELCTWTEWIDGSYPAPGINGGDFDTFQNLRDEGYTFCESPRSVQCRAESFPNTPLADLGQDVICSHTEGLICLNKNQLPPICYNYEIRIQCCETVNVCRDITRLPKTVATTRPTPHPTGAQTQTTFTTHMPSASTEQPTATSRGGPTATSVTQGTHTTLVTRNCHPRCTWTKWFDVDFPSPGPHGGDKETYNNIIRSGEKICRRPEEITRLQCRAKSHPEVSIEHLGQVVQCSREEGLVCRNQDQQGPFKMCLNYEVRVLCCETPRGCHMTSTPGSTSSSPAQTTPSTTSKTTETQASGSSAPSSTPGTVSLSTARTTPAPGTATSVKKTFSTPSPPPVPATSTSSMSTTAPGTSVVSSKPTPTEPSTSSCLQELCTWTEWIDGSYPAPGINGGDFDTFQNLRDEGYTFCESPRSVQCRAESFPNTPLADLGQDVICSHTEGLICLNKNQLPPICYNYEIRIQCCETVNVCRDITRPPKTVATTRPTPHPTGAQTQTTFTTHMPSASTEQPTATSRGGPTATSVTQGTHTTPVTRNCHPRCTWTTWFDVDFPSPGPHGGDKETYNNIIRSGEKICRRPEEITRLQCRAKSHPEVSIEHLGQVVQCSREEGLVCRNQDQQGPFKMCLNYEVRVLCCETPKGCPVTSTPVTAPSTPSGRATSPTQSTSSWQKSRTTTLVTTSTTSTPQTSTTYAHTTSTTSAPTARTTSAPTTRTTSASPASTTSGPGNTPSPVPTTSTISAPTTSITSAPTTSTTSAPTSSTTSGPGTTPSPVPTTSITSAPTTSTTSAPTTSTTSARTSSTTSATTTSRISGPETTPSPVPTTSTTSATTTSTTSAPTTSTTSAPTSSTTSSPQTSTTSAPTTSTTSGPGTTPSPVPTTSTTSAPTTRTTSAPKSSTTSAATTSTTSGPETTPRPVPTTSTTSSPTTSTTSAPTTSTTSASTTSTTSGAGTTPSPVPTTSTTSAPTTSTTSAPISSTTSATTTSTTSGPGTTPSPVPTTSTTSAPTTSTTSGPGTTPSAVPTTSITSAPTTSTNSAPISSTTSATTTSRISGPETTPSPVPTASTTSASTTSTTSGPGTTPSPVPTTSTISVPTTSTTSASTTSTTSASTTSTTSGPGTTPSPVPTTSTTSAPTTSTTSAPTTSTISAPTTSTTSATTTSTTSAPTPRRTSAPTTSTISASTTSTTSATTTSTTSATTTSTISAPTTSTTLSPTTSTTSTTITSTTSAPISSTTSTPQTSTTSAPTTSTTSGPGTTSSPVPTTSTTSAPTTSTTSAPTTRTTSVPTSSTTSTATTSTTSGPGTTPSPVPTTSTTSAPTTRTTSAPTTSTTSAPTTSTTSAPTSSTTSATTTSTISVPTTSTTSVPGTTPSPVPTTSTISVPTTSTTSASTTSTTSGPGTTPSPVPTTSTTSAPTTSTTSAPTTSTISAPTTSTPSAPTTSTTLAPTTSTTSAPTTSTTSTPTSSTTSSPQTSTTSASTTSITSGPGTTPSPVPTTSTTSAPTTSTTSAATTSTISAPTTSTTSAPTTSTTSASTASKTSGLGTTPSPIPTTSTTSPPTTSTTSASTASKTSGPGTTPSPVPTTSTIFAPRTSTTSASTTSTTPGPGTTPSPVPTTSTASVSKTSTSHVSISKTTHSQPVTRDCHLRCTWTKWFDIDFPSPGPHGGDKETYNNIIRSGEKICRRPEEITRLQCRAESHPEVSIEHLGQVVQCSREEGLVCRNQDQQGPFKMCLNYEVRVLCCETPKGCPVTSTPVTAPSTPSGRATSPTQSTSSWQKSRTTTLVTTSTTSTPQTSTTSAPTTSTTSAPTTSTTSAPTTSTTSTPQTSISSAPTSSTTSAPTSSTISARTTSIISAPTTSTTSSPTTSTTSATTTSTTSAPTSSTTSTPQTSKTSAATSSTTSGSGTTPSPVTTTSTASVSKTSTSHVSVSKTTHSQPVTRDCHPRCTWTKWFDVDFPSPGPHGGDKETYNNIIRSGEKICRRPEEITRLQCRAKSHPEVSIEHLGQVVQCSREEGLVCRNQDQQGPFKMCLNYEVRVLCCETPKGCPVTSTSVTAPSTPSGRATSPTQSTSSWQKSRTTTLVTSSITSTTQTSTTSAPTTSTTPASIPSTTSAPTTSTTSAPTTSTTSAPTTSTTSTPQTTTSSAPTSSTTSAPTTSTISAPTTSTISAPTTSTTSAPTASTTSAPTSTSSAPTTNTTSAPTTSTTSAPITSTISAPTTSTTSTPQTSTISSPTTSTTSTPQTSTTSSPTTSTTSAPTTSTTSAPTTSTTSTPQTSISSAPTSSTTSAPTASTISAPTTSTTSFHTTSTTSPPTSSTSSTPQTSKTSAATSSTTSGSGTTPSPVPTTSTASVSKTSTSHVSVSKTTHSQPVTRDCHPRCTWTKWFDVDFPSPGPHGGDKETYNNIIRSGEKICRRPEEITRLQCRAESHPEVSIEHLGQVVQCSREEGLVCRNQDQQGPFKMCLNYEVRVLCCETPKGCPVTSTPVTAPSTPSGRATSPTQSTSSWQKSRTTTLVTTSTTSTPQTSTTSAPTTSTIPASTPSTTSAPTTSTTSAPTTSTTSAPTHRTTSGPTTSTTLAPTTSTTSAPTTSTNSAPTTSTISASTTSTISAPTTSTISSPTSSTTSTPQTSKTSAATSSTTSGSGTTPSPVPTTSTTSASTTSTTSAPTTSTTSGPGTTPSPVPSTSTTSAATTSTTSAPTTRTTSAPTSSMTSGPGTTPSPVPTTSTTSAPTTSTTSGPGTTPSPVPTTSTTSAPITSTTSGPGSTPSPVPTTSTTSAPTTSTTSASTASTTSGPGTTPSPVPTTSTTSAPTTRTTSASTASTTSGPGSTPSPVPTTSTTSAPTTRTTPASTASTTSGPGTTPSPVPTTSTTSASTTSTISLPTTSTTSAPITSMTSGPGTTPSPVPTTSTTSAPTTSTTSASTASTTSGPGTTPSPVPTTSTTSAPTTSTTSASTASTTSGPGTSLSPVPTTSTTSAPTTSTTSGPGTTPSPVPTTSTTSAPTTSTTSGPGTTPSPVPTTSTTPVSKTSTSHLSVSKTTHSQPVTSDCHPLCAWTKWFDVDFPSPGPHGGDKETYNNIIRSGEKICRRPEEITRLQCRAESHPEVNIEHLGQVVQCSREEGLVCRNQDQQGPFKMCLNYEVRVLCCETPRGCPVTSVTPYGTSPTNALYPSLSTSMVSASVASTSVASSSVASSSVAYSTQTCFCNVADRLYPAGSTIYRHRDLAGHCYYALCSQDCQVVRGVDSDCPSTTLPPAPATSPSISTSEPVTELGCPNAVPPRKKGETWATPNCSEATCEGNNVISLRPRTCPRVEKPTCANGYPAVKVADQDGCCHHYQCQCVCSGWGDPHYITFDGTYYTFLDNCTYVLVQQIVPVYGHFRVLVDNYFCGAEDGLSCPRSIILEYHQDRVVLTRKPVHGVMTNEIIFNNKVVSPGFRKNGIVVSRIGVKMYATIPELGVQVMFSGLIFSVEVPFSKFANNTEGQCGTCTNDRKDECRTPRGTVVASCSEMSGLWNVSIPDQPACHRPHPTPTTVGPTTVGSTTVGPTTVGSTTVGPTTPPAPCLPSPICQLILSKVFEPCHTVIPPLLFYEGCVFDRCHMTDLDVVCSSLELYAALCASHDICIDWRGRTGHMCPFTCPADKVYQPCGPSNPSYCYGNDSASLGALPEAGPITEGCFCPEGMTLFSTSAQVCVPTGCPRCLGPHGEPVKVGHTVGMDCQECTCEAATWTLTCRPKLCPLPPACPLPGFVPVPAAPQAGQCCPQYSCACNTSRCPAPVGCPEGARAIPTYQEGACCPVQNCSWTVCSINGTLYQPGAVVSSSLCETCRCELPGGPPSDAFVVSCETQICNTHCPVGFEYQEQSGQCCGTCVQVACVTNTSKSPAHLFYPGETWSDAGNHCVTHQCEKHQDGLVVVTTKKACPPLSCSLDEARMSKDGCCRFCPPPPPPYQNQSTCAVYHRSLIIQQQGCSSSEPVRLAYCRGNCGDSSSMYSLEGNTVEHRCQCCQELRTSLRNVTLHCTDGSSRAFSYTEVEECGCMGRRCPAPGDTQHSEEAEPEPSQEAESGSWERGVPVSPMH

Biological target: MUC5ac mucin (PAM4 antigen) from CaPan1 human pancreatic carcinoma (human) (UniProt P98088)
Experiment: immunoprecipitation from cyst fluids, PAGE and mass spectrometry

binding: binds
B1: PAM4 antibody (version not stated where used) (antibody, V domains shown)
VH: EVQLQESGPELVKPGASVKMSCKASGYTFPSYVLHWVKQKPGQGLEWIGYINPYNDGTQYNEKFKGKATLTSDKSSSTAYMELSRLTSEDSAVYYCARGFGGSYGFAYWGQGTLITVSA
VL: DIVMTQSPAIMSASPGEKVTMTCSASSSVSSSYLYWYQQKPGSSPKLWIYSTSNLASGVPARFSGSGSGTSYSLTISSMEAEDAASYFCHQWNRYPYTFGGGTKLEIK

Results are given in words; binding and its absence hold for the method and conditions named. Binding seen in cells or lysates may run through a third protein. Here binding means that the protein was enriched with, or labelled near, the bait; the list need not be complete.
